Among the data in article PMC10958042 are binding values, retold here.

First the molecules themselves.
T1: Protein A-ATGL P86K (human) (UniProt Q96AD5)
T1 sequence: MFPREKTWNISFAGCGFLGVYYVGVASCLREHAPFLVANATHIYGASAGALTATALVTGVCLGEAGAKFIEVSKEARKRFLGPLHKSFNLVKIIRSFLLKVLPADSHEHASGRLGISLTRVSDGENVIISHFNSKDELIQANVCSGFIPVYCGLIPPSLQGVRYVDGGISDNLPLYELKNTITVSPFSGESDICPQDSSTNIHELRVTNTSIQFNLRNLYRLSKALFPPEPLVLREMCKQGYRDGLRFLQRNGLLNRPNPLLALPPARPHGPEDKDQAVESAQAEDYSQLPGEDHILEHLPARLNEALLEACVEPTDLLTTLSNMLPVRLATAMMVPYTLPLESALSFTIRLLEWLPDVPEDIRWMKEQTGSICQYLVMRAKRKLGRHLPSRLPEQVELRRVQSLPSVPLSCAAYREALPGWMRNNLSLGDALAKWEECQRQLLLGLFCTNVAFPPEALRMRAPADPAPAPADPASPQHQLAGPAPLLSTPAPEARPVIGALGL

T2: Protein A-ATGL I70A (human) (UniProt Q96AD5)
T2 sequence: T1 sequence with I70A, K86P

T3: Protein A-ATGL N39E (human) (UniProt Q96AD5)
T3 sequence: T1 sequence with N39E, K86P

T4: Protein A-ATGL L62K (human) (UniProt Q96AD5)
T4 sequence: T1 sequence with L62K, K86P

B1: murine Plin1 wild type, firefly-luciferase fusion (protein, UniProt Q8CGN5 1-517)
chain: MSMNKGPTLLDGDLPEQENVLQRVLQLPVVSGTCECFQKTYNSTKEAHPLVASVCNAYEKGVQGASNLAAWSMEPVVRRLSTQFTAANELACRGLDHLEEKIPALQYPPEKIASELKGTISTRLRSARNSISVPIASTSDKVLGATLAGCELALGMAKETAEYAANTRVGRLASGGADLALGSIEKVVEFLLPPDKESAPSSGRQRTQKAPKAKPSLVRRVSTLANTLSRHTMQTTAWALKQGHSLAMWIPGVAPLSSLAQWGASAAMQVVSRRQSEVRVPWLHNLAASQDESHDDQTDTEGEETDDEEEEEESEAEENVLREVTALPNPRGLLGGVVHTVQNTLRNTISAVTWAPAAVLGTVGRILHLTPAQAVSSTKGRAMSLSDALKGVTDNVVDTVVHYVPLPRLSLMEPESEFRDIDNPSAEAERKGSGARPASPESTPRPGQPRGSLRSVRGLSAPSCPGLDDKTEASARPGFLAMPREKPARRVSDSFFRPSVMEPILGRAQYSQLRKKS
B2: CIDEC wild type, firefly-luciferase fusion (protein, UniProt Q96AQ7 1-238)
chain: MEYAMKSLSLLYPKSLSRHVSVRTSVVTQQLLSEPSPKAPRARPCRVSTADRSVRKGIMAYSLEDLLLKVRDTLMLADKPFFLVLEEDGTTVETEEYFQALAGDTVFMVLQKGQKWQPPSEQGTRHPLSLSHKPAKKIDVARVTFDLYKLNPQDFIGCLNVKATFYDTYSLSYDLHCCGAKRIMKEAFRWALFSMQATGHVLLGTSCYLQQLLDATEEGQPPKGKASSLIPTCLKILQ
B3: G0S2 wild type, firefly-luciferase fusion (protein, UniProt P27469 1-103)
chain: METVQELIPLAKEMMAQKRKGKMVKLYVLGSVLALFGVVLGLMETVCSPFTAARRLRDQEAAVAELQAALERQALQKQALQEKGKQQDTVLGGRALSNRQHAS
B4: CGI-58 wild type, firefly-luciferase fusion (protein, UniProt Q8WTS1 1-349)
chain: MAAEEEEVDSADTGERSGWLTGWLPTWCPTSISHLKEAEEKMLKCVPCTYKKEPVRISNGNKIWTLKFSHNISNKTPLVLLHGFGGGLGLWALNFGDLCTNRPVYAFDLLGFGRSSRPRFDSDAEEVENQFVESIEEWRCALGLDKMILLGHNLGGFLAAAYSLKYPSRVNHLILVEPWGFPERPDLADQDRPIPVWIRALGAALTPFNPLAGLRIAGPFGLSLVQRLRPDFKRKYSSMFEDDTVTEYIYHCNVQTPSGETAFKNMTIPYGWAKRPMLQRIGKMHPDIPVSVIFGARSCIDGNSGTSIQSLRPHSYVKTIAILGAGHYVYADQPEEFNQKVKEICDTVD
B5: murine Plin5 wild type, firefly-luciferase fusion (protein, UniProt Q8BVZ1 1-463)
chain: MDQRGEDTTLAPHSRMSGDQTAQDPGSSLGELDQQNVVNRVVALPLVKATCTAVSSAYNSAKDRHPLLGSACRLAEHCVCSVTTCALDHAQPLLEHLQPQLATVNDLACRGLDKLEEKLPFLQQPSDMVVTSAKDTVAKSVTGMVDLAQRGRRWSGELRRSMSQAMDMVLGKSEKLVDRFLPMTEAELAVLAAEAEGPEVGTVEEQRQQQGYFVRLGSLSARLRHLAYEHSLGKLRQSKHRTQEMLAQLQETLELIQHMQRGASPSPTFHPPKTQELWGSWSPCLENGRSHSEVELETLALSRSLTLELQNAVDALAGCVRGLPPSAQAKVAEVQRSVDALQATFADAHCLGDVAPTALAEGRGSVARAHACVDEFLDLVLRAMPLPWLVGPFAPILVEQSEPLINLATCVDEVVGDPDPRWAHMDWPAQKRAWEAESADPGGQEAEPPRGQGKHTMMPELDF

Positions count from the first letter of the chain named. These are yes or no findings as the source states them, for the method shown. In cells and extracts the contact can be indirect. Some binding calls cover weakened binding; strength is not graded here. Where a sequence is shown, tags or fusion partners need not be part of it.

The first test has as its target T1, Protein A-ATGL P86K (human). As to the kind of experiment: co-IP; LUMIER luminescence-based co-immunoprecipitation: Protein A-ATGL variant and firefly-luciferase partner co-expressed in HEK293T, SDS-free RIPA2 lysate precipitated in IgG-coated plates 2 h at 4 °C, luminescence read; log2 fold change against wild-type ATGL, two experiments in triplicate.
In the case of B1, the binding result is “binds”.
Same read-out and setting: in the case of B2 it was “binds”; in that of B3, “binds”.
For the molecule B4, the binding entry is “binds”.

The target in another test is T2, Protein A-ATGL I70A (human). The description is as above.
Consider B1, for which the binding result is reported as “binds”.
Still for that read-out and setting: in the case of B2 it was “binds”; in that of B3, “binds”.
The same measure, in the same setting: in the case of B4 it was “binds”.

The target of another test is T3, Protein A-ATGL N39E (human). Described as above.
On to B1, for which the binding entry is reported as “binds”.
In the case of B2, the binding entry is on record as “binds”.
Still for that read-out and setting: in the case of B5 it was “binds”; in that of B4, “binds”.

The next test addresses T4, Protein A-ATGL L62K (human). Described as above.
Regarding B1, the binding result is given as “binds”.
Still for that read-out and setting: the result for B2 reads “binds”.
The same measure, in the same setting: in the case of B5 it was “binds”; in that of B4, “binds”.
